Drawing on patent publication US20210030857A1, this text covers binding for two molecules.

Protein sequences, listed by entry. Tags and fused reporters are not part of them. Lines headed by an entry give the natural chain unless they say otherwise; changes in a name come on top.
UniProt Q86Z14: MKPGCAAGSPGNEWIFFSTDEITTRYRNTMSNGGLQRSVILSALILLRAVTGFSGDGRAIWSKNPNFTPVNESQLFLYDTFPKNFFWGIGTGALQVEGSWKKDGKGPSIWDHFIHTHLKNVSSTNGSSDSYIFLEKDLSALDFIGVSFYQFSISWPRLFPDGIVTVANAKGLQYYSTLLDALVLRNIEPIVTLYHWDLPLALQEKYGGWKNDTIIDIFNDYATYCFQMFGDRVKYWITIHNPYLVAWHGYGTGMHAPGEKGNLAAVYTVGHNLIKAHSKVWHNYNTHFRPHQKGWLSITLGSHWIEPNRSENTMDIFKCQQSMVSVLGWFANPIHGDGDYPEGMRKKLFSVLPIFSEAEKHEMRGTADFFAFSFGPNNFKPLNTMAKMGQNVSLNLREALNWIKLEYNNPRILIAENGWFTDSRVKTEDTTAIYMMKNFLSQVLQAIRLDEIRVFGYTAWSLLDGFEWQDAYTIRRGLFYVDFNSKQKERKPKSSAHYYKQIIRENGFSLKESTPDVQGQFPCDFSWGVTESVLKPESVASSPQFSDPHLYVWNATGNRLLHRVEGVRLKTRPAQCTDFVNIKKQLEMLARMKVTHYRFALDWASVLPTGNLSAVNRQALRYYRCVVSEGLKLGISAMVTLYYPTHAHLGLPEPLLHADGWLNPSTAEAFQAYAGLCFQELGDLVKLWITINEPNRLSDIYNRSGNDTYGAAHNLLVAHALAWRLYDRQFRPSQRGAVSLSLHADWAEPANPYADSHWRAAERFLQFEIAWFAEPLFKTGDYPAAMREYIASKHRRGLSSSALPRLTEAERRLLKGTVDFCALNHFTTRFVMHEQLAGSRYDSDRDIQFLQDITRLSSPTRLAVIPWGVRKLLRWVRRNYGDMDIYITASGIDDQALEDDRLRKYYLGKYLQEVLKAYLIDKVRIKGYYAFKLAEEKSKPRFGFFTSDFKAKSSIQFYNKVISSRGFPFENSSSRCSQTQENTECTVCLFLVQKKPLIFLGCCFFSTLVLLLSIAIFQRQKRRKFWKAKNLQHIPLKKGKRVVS

For test [1], the target named is human beta klotho protein (soluble, used in Biacore) (human) (UniProt Q86Z14). The test is described as follows: Biacore SPR, antibody captured on anti-mouse Fc, KLB as analyte (1.56-25 nM), 25 C; KD column. Background: SPR reads the build-up and loss of mass on a sensor chip optically.
In test [2] the target is human beta klotho expressed on cells (human) (UniProt Q86Z14). The test is described as follows: FACS on transfected Expi293 cells.

Results are given in words; binding and its absence hold for the method and conditions named. Some binding calls cover weakened binding; strength is not graded here.

B1: antibody 5H23 (antibody, V domains shown)
VH: QVQLQQSGPELVKPGALVKISCKASGYTFTSYDINWVKQRPGQGLEWIGWIYPGDGSTKYNEKFKGKATLTADKSSRTAYMQLSSLTSENSAVYFCARSDYYGSRSFAYWGQGTLVTVSA
VL: DIVLTQSPASLAVSLGQRATISCRASKSVSTSGYVYMHWNQQKPGQPPKLLIYLASYLESGVPARFSGSGSGTDFTLNIHPVEEEDAAIYYCQHSRDLTFPFGGGTKLEIK
With B1, in test [1], the binding result is “binds”.

B2: humanized 5H23 antibody (VH SEQ ID NO: 271 and VL SEQ ID NO: 276) (antibody, V domains shown)
VH: QVQLQQSGAEVKKPGASVKVSCKASGYTFTSYDINWVRQAPGQGLEWIGWIYPGDGSTKYNEKFKGKATITRDTSASTAYMELSSLRSEDTAVYFCARSDYYGSRSFAYWGQGTLVTVSS
VL: DIVMTQSPDSLAVSLGERATINCRASKSVSTSGYVYMHWYQQKPGQPPKLLIYLASYLESGVPDRFSGSGSGTDFTLTISSVQAEDVAVYYCQHSRDLTFPFGGGTKLEIK
As to B2, the binding entry in test [2] is on record as “binds”.
